The record followed here is publication PMC3897714.

The target in the test is T1, zebrafish Nogo receptor zNgRH2a (zebrafish).
T1 sequence: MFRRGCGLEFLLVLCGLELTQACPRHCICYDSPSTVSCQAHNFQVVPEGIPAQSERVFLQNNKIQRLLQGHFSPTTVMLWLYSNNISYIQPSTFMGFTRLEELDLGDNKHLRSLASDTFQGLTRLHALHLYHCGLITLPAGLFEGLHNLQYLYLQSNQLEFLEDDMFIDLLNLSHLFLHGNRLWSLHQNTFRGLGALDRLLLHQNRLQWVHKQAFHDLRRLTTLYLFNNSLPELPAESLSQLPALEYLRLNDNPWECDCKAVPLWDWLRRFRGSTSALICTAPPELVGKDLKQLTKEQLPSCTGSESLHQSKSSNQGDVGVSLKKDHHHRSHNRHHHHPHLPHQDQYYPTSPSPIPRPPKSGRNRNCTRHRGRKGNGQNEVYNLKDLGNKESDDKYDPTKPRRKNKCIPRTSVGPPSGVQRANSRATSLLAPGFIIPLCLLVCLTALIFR
As to the kind of experiment: alkaline phosphatase (AP) fusion binding assay on transfected cells; COS-1 cells transfected with one zebrafish Nogo receptor or pcDNA3 alone, incubated with conditioned media containing AP fusion proteins at room temperature for 3 h in HBH pH 7.0; fixed, endogenous AP heat-inactivated at 65°C, bound AP detected by NBT/BCIP.

These are yes or no findings as the source states them, for the method shown.

Regarding “AP-N(1–132)zNogo-B (zebrafish) (domain or fragment)”, the binding entry is given as “no binding”.
